For this assay, the target named is Ago2-Flag (UniProt Q9UKV8). In words: immunoprecipitation of Ago-1 or Ago-2 from HEK 293 lysates, mass spectrometry.

Sequences of proteins named here, by UniProt entry; tags and fusion partners are left off. Residues count along the entry.
UniProt Q9UKV8: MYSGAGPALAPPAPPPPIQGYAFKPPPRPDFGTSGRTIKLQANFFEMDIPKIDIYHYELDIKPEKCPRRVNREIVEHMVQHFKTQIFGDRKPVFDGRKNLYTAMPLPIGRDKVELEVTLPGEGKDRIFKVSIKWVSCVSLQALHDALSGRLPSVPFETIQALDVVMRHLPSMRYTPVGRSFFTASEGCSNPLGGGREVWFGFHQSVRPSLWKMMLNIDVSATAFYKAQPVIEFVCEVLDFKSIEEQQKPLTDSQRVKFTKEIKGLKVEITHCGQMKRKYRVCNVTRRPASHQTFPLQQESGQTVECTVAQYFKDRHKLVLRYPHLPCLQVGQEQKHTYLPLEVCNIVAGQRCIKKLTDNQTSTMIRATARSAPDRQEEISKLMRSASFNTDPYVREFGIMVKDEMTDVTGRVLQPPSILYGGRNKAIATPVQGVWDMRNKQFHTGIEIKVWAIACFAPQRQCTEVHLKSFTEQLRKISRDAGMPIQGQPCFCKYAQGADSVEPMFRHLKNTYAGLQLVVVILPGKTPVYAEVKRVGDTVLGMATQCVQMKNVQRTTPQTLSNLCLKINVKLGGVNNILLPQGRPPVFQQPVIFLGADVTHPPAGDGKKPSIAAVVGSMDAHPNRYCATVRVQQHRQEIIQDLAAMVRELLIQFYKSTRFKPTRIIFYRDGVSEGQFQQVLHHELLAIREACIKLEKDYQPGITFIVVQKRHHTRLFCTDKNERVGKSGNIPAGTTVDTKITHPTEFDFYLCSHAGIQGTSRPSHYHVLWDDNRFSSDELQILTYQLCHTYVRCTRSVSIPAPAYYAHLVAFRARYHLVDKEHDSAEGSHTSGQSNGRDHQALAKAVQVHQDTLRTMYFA
UniProt P67809, residues 2-324: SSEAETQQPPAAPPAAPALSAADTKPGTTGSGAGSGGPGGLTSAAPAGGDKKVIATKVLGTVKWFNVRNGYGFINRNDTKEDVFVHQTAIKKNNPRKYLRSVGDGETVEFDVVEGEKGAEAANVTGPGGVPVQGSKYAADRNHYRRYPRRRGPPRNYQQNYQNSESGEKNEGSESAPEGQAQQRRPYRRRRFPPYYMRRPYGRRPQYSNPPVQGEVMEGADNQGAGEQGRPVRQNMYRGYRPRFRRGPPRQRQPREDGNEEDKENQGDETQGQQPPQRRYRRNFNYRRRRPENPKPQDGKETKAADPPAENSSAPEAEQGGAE

These are yes or no findings as the source states them, for the method shown. In cells and extracts the contact can be indirect. A yes stands for co-enrichment or nearness to the bait. Other partners may have been found.

As to YB-1 (from UniProt P67809 2-324), the binding result was “binds”.

For the origin of these results see US20190330628A1.
